These results are taken from the supplement of paper PMC12889115.

This is one part of the list. Values are raw readings; no control value is given beside them.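 In the initial screen, polymyxin B was used at a concentration that permeabilizes Salmonella's outer membrane but not its inner membrane. Maximum growth was set by DMSO wells with or without polymyxin B. Since plates varied, data were ranked per plate, and compounds giving the lowest OD600 advanced as hits.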

In this assay the test system is Salmonella enterica serovar Typhimurium SL1344. The assay is described as follows: bacterial growth OD600 after 18 h with compound and polymyxin B; higher = more bacterial growth (less inhibition). Particulars: 50 µM, Mueller-Hinton broth.

Consider `COc1ccc(C(=O)N2CCC3(CC2)c2ccccc2[C@@H](NC(=O)c2ccncc2)[C@@H]3OC)cc1F`, for which the “bacterial growth OD600” value (polymyxin B 0.75 µg/mL) came to 0.843.

`O=C(COc1ccc(Cl)cc1)N1CCC(n2c(C3CCCO3)nc3cc(C(F)(F)F)ccc32)CC1` (stereo unspecified): for the setting “polymyxin B 0.75 µg/mL”, the “bacterial growth OD600” value came to 0.723.

With `CCN(Cc1ccc(COC)o1)CC1CCCN(CCc2cccc(OC)c2)C1` (stereo unspecified), the “bacterial growth OD600” value (polymyxin B 0.75 µg/mL) was determined as 0.999.

For `O=C(NCc1sc2ccccc2c1Cl)C1CCC(=O)N(C2CC2)C1` (stereo unspecified), the “bacterial growth OD600” value (polymyxin B 1 µg/mL) turned out to be 1.05.

Turning to `CSc1ccc(CN2CCC(n3nccc3NC(=O)C(C)(C)C)CC2)cc1`, the “bacterial growth OD600” value (polymyxin B 0.75 µg/mL) turned out to be 0.818.

For the compound `COc1cc(CN2Cc3cc(Cl)ccc3OC(C)C2)cc2c1OCO2` (stereo unspecified), the “bacterial growth OD600” value (polymyxin B 0.75 µg/mL) amounted to 0.

Regarding `COc1cc(CNC2CCN(C)CC2)ccc1OCC(O)CN(C)C(C)C` (stereo unspecified), the “bacterial growth OD600” value (polymyxin B 1 µg/mL) came out at 1.33.

Regarding `O=C(NC1CC(=O)N(Cc2ccccc2Cl)C1)c1cc2ccccc2o1` (stereo unspecified), the “bacterial growth OD600” value (polymyxin B 1 µg/mL) was determined as 0.793.

Consider `C=CCCC(=O)N1CCCC(N2CCN(c3cccc(C(F)(F)F)c3)CC2)C1` (stereo unspecified), for which the “bacterial growth OD600” value (polymyxin B 1 µg/mL) is 0.902.

With `O=C(c1ccc[n+]([O-])c1)N1CCC2(CCCN(CC3CCCCC3)C2)C1` (stereo unspecified), the “bacterial growth OD600” value (polymyxin B 0.75 µg/mL) came to 0.863.

Turning to `Cc1ncoc1C(=O)N1CCC(CCC(=O)NC2CCN(Cc3ccccc3)C2)CC1` (stereo unspecified), the “bacterial growth OD600” value (polymyxin B 1 µg/mL) came to 0.942.

As for `Cc1ccc2c(CC(=O)NCCN3Cc4ccccc4OC(c4ccsc4)C3)cc(=O)oc2c1` (stereo unspecified), the “bacterial growth OD600” value (polymyxin B 0.75 µg/mL) was found to be 0.737.

With `COc1ccc(OC)c(C2CCN(c3nncc(-c4cc(C)oc4C)n3)C2)c1` (stereo unspecified), under “polymyxin B 0.75 µg/mL”, the “bacterial growth OD600” value is 0.914.

Take `O=C(c1csnn1)N1CCc2[nH]nc(-c3ccc(Cl)cc3)c2C1`: the “bacterial growth OD600” value (polymyxin B 0.75 µg/mL) was 0.

With `COCCN(C)Cc1cn(-c2ccccc2)nc1-c1cccc(OC)c1`, the “bacterial growth OD600” value (polymyxin B 1 µg/mL) worked out at 0.831.

On to `COC(=O)C1CCCCN1Cc1ccc2c(c1)CN(C(=O)c1ccc3[nH]ccc3c1)CCO2` (stereo unspecified), for which, under “polymyxin B 0.75 µg/mL”, the “bacterial growth OD600” value amounted to 0.823.

Regarding `COc1ccc(CN2C(=O)O[C@@H]3CN(Cc4cccc(F)c4)C[C@@H]32)cc1OC`, the “bacterial growth OD600” value (polymyxin B 0.75 µg/mL) came out at 0.777.

Regarding `COC(=O)CCCNC(=O)c1ccccc1OC1CCN(C(=O)c2cccnc2)CC1`, the “bacterial growth OD600” value (polymyxin B 1 µg/mL) was 1.08.

Consider `CN(Cc1ccccn1)C(=O)c1csc2nc(-c3cccc(C(F)(F)F)c3)cn12`, for which, where the note is “polymyxin B 0.75 µg/mL”, the “bacterial growth OD600” value is 0.624.

For `O=C(CCc1ccccc1)Nc1ccc(N2CCC(NCC3CCCN(c4ncccn4)C3)CC2)cc1` (stereo unspecified), under “polymyxin B 0.75 µg/mL”, the “bacterial growth OD600” value stood at 0.791.

Turning to `CN(C)c1ccc([C@@H]2C[C@H]3CN(CCc4ccccc4)C(=O)[C@]34CCCN24)cc1`, the “bacterial growth OD600” value (polymyxin B 1 µg/mL) turned out to be 1.11.

Consider `COC(=O)C1CCN(C(=O)c2csc3nc(-c4ccccc4C)cn23)CC1`, for which the “bacterial growth OD600” value (polymyxin B 1 µg/mL) was 1.1.

Take `COCC1CCCN(Cc2ccc3c(c2)CN(C(=O)c2cccc(-c4ccc(F)cc4)c2)CCO3)C1` (stereo unspecified): the “bacterial growth OD600” value (polymyxin B 0.75 µg/mL) worked out at 0.007.

For `Cc1nc(N2CCC(C(=O)NCC3CC4C=CC3C43CC3)CC2)nc2cc(S(C)(=O)=O)ccc12` (stereo unspecified), under “polymyxin B 0.75 µg/mL”, the “bacterial growth OD600” value was found to be 0.889.

`Cc1csc(CN(C)C(=O)c2cc(COc3cccc(F)c3)[nH]n2)n1`: the “bacterial growth OD600” value (polymyxin B 0.75 µg/mL) amounted to 0.866.

In the case of `O=C(CCN1CCOCC1)NC1CCCN(CCc2ccccc2)C1` (stereo unspecified), the “bacterial growth OD600” value (polymyxin B 1 µg/mL) was determined as 1.12.

Regarding `Cc1cnc(C)c(N2CCN(C(=O)CN3Cc4ccccc4OC(c4ccsc4)C3)CC2)n1` (stereo unspecified), the “bacterial growth OD600” value (polymyxin B 0.75 µg/mL) worked out at 0.016.

As for `COc1cc(C(=O)NCCCOC(C)C)ccc1OC1CCN(C(C)=O)CC1`, the “bacterial growth OD600” value (polymyxin B 1 µg/mL) came to 1.02.

For `COCCN1C(=O)CC(CC(=O)N(C)Cc2ccc3nsnc3c2)(c2ccccc2OC)C1=O` (stereo unspecified), the “bacterial growth OD600” value (polymyxin B 0.75 µg/mL) worked out at 0.772.

Turning to `COc1ccccc1Oc1ncccc1CNC(=O)NC1CCCCC1`, the “bacterial growth OD600” value (polymyxin B 0.75 µg/mL) was 0.842.

As for `CCN(CC)CCN(C)C(=O)c1cc(COc2ccc(OC)cc2Cl)on1`, the “bacterial growth OD600” value (polymyxin B 1 µg/mL) was found to be 0.861.
